The assay can be described thus: qHTS Assay for Lipid Storage Modulators in Drosophila S3 Cells.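 On cell number change: cells counted by Cell Tracker Red CMTPX staining in the red channel.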 Conditions: BODIPY lipid droplet fluorescence, 18-24 h; for cell number change: measured here: cell count max response, cells fed with added oleic acid. The gist of the method:
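Drosophila S3 cells loaded with oleic acid (400 uM, as added) and compounds at several concentrations; lipid droplets imaged by 488-nm laser-scanning cytometry, 500–530 nm intensity and object ratio to cell channel. Percent activity normalized to 20 uM Triacsin C.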
In general terms: In qHTS, concentration-response curves come from the screen itself.

The mark [1] stands for this setting: measured here: cell number channel AC50, cells fed with added oleic acid.
Setting [2] is: measured here: lipid fluorescence (Fed channel) AC50, cells fed with added oleic acid.

The list shows a part of the results. These are further read-outs of the screen, such as a control signal, another cell line or another target. No call is given for them. Most of these compounds were active or inconclusive in the main read-out, so they are no random draw. The note in brackets gives the kind of curve behind each potency; many fits are weak.

Our source for the cell number change and AC50 values is PubChem BioAssay AID2685 (National Center for Advancing Translational Sciences (NCATS), 2010).

One may read the AC50 as the concentration at which the activity in the assay is half-maximal. The low end stands for greater potency, the high end for weaker potency.

For the compound `O=C(c1ccccc1)N1CCN(c2ccc([N+](=O)[O-])cc2-n2cccc2)CC1`, the cell number change was 56.2%. Also, the AC50 under setting [1] was 2.06 µM [rising, partial curve]. Further, under setting [2], the AC50 was 16.4 µM [rising, single point].
As to `COc1ccc2c(c1)[C@H]1[C@H](CO2)[C@H](c2ccccc2)[C@]2(C)C(=O)Nc3cc(Cl)ccc3C(=O)N12`, the cell number change was found to be 19.2%. The AC50 under setting [2] was 20.6 µM [rising, partial curve].
As for `CCCCn1nc(C(=O)OCC(=O)Nc2sccc2C(N)=O)c2ccccc2c1=O`, the cell number change was -12.9%. For the same compound, the concentration at half-maximal activity (AC50) under setting [2] was 18.4 µM [rising, single point].
For `O=C(NCc1ccccc1CN1CCCC1)C1CCN(S(=O)(=O)c2ccc(Cl)cc2)CC1`, the cell number change is -30.3%. Also, the AC50 under setting [1] was 16.4 µM [falling, partial curve, poor fit].
Turning to `Cc1ccc2nc3sc(C(=O)NCc4ccco4)c(N)c3cc2c1`, the cell number change is -65.8%. Further, the AC50 under setting [1] is 14.6 µM [falling, partial curve]. The AC50 under setting [2] is 16.4 µM [falling, partial curve].
With `Cc1cc(-c2ccc(S(=O)(=O)N3CCN(c4cccc(C)c4C)CC3)s2)on1`, the cell number change amounted to 5.81%.
For the compound `O=C1CCN2C=Nc3cccc4ccc1c2c34`, the cell number change is 10.4%.
For the compound `Nc1ccccc1NC1=CC(=O)CC(c2ccco2)C1` (stereo not given), the cell number change turned out to be 0.802%. The AC50 under setting [2] is 6.51 µM [rising, partial curve].
For the compound `Cc1cnc(NC(=O)c2ccc3ncsc3c2)s1`, the cell number change is 2%.
Regarding `CC(CNC(=O)c1ccc(Br)o1)NC(=O)c1ccc(Br)o1` (stereo not given), the cell number change came out at 36.3%. Further, the AC50 under setting [1] was 29.1 µM [rising, single point]. For the same compound, the AC50 under setting [2] is 5.8 µM [rising, full curve, poor fit].
Turning to `CC1(C)CCC(=O)C=C1Nc1ccc(F)c(Cl)c1`, the cell number change was -16.1%. Further, under setting [2], the AC50 is 0.092 µM [rising, full curve, poor fit].
On to `Cc1ccc(CSCC(=O)Nc2ccc(N3CCOCC3)cc2N2CCOCC2)cc1`, for which the cell number change was -17.9%.
Turning to `COc1ccc(CCNC(=O)CCN2C(=O)C(C)Oc3ccc(C)cc32)cc1OC` (stereo not given), the cell number change was -6.54%. In addition, the AC50 under setting [1] was 6.51 µM [rising, partial curve, poor fit]. In addition, the AC50 under setting [2] was 0.103 µM [rising, full curve, poor fit].
`CC(C)CNS(=O)(=O)c1ccc(CCC(=O)NCCc2ccccc2)cc1`: the cell number change was -23%. Under setting [2], the AC50 was 0.651 µM [falling, partial curve].
Turning to `COC(=O)C1=CN(c2cc(C)cc(C)c2)C=C(C(=O)OC)C1c1cccc(F)c1`, the cell number change was found to be 33.3%. Further, under setting [1], the AC50 is 7.94 µM [rising, partial curve]. The AC50 under setting [2] was 11.2 µM [rising, partial curve, poor fit].
Consider `O=C(NC1CC1)c1ccc(-n2cccc2)cc1`, for which the cell number change is 18.9%.
Take `Cc1cccc(NC(=O)c2nc[nH]c2C(=O)NCCCCCCNC(=O)c2[nH]cnc2C(=O)Nc2cccc(C)c2)c1`: the cell number change stood at 19.3%. For the same compound, under setting [2], the AC50 is 0.0731 µM [rising, partial curve, poor fit].
For `COc1ccc(N2CC(C(=O)OCC(=O)Nc3cc(C)on3)CC2=O)cc1` (stereo not given), the cell number change came to 16.7%. Further, under setting [1], the AC50 is 6.51 µM [rising, single point]. Further, under setting [2], the AC50 was 20.6 µM [falling, single point].
For `Nc1nc(SCC(=O)NCCN2CCOCC2)nc2sc3c(c12)CCC3`, the cell number change was -13.8%.
`CCCc1cc(=O)oc2cc(C)cc(OCC(=O)NCCCN3CCCC3=O)c12`: the cell number change turned out to be 16.4%.
Turning to `Cn1cnnc1SCC(=O)c1ccc2c(c1)NC(=O)CO2`, the cell number change was -10.8%. Moreover, the AC50 under setting [2] is 10.3 µM [falling, single point].
As for `O=C(c1cc2ccccc2cc1O)N1CCN(c2ccccc2O)CC1`, the AC50 under setting [2] is 0.231 µM [falling, full curve, poor fit].
`c1ccc(-c2cncn2-c2ccccc2)cc1`: the cell number change is -34.6%. In addition, the AC50 under setting [1] is 10.3 µM [falling, single point]. Further, the AC50 under setting [2] is 29.1 µM [falling, single point].
On to `O=C(CN1CCN(Cc2ccc(F)cc2Cl)C1=O)NCCc1ccccc1`, for which the cell number change is -12.3%. Moreover, under setting [2], the AC50 was 3.66 µM [rising, single point].
In the case of `CCOC(=O)c1nn(-c2ccc(C)cc2)c(=O)c2c(N)scc12`, the cell number change was -41%. For the same compound, the AC50 under setting [1] is 18.4 µM [falling, single point].
In the case of `CCc1cccc(NC(=O)C2CCCN(S(=O)(=O)c3cccs3)C2)c1` (stereo not given), the cell number change was -8.56%. The half-maximal activity concentration (AC50) under setting [2] is 4.11 µM [falling, full curve].
For the compound `CCOC(=O)c1ccc(NS(=O)C23CC4CC(CC(C4)C2)C3)cc1` (stereo not given), the AC50 under setting [1] was 1.03 µM [rising, partial curve].
Regarding `CN(C)CCNC(=O)Nc1ccc(F)cc1F`, the cell number change came out at 0.828%.
For `O=C(Cn1cccc1)NC1CCCCCC1`, the cell number change was -5.17%. For the same compound, the AC50 under setting [2] is 29.1 µM [rising, single point].
With `CC(C)NCC(O)COCc1ccc(Cl)cc1` (stereo not given), the cell number change is -7.2%. Moreover, the AC50 under setting [2] is 1.64 µM [falling, full curve, poor fit].
With `Cc1cc(NC(=O)COC(=O)c2ccc([N+](=O)[O-])cc2Cl)no1`, the cell number change stood at 31.8%. For the same compound, the AC50 under setting [1] was 6.51 µM [rising, full curve, poor fit]. The AC50 under setting [2] was 6.51 µM [rising, full curve, poor fit].
For `CN(Cc1ccc(N(C)C)cc1)C(=O)c1cc2ccccc2o1`, the cell number change was -10.9%. Further, the AC50 under setting [2] is 29.1 µM [falling, single point].
As to `CC1(C)CN(c2cccc(C#N)c2)C1=O`, the cell number change was -51.3%.
In the case of `CC(C)C(NC(=O)CN1C(=O)c2ccccc2C1=O)c1ccccc1` (stereo not given), the cell number change stood at 7.8%. The AC50 under setting [2] was 1.16 µM [rising, full curve, poor fit].
For `COC(=O)CN1C(=O)C(C)=C(c2ccc(C)cc2)S1(=O)=O`, the cell number change is -21.3%. In addition, the concentration at half-maximal activity (AC50) under setting [2] is 29.1 µM [rising, single point].
Take `CN(C)C(=O)CN1C(=O)C2CCCCN2C(=O)c2ccccc21` (stereo not given): the cell number change is -30.7%. The AC50 under setting [1] is 29.1 µM [falling, single point]. In addition, under setting [2], the AC50 is 29.1 µM [falling, single point].
Regarding `CC(=O)Nc1nc2c(s1)CCc1ccccc1-2`, the cell number change was -29.8%. The AC50 under setting [2] is 32.6 µM [falling, single point].
In the case of `COC(=O)c1cc(NCc2c(F)cccc2Cl)ccc1N1CCOCC1`, the cell number change was -5.79%. Besides, the AC50 under setting [2] was 4.11 µM [falling, single point].
With `O=C(NC1CCS(=O)(=O)C1)c1cccc(S(=O)(=O)N2CCCCC2)c1` (stereo not given), the cell number change is 6.09%. Under setting [2], the AC50 is 0.00461 µM [falling, full curve, poor fit].
Consider `O=C(O)CN1C(=O)CC(Cc2ccccc2)C1=O` (stereo not given), for which the cell number change was -9.76%. Also, the AC50 under setting [2] is 25.9 µM [falling, single point].
Turning to `Cc1cccc(-n2ccnc2SCC(=O)Nc2ccc3c(c2)OCCO3)c1`, under setting [2], the AC50 is 6.51 µM [rising, single point].
Turning to `O=C(C=C1CCN(c2ncc(C(F)(F)F)cc2Cl)CC1)NNC(=O)Nc1ccc(Cl)cc1`, the cell number change is -29.3%. The AC50 under setting [1] is 0.82 µM [falling, full curve, poor fit]. Further, under setting [2], the AC50 was 0.326 µM [falling, full curve].
Take `COc1ccc(OC)c(-c2cn(S(=O)(=O)c3ccccc3)nc2N)c1`: the cell number change was determined as 22.7%. Moreover, the AC50 under setting [1] was 0.0731 µM [rising, full curve]. Also, the AC50 under setting [2] was 0.146 µM [rising, full curve].
As to `O=C(CCn1nnnc1CN1CCOCC1)N1CCC(c2ccccc2Cl)C1` (stereo not given), the cell number change is -4.88%.
Still for that read-out and setting: in the case of `COc1ccc(S(=O)(=O)NCc2ccccc2)cc1Br` it was 2.91%.
Turning to `COc1ccc(/C=N/NC(=O)c2cccc([N+](=O)[O-])c2)cc1OC(=O)c1ccc(C)cc1`, the cell number change was -33.5%. For the same compound, the AC50 under setting [1] was 14.6 µM [falling, single point]. Also, the AC50 under setting [2] was 18.4 µM [falling, single point].
For the compound `O=C(O)c1cn(Cc2ccccn2)c(=O)c2ccccc12`, the cell number change is -12.2%.
As for `CCCCn1c(N)c(N(CCOC)C(=O)C2CCN(C(=O)c3ccc(Cl)cc3)CC2)c(=O)[nH]c1=O`, the AC50 under setting [1] was 4.61 µM [rising, single point].
For the compound `O=C(O)CSc1ncccc1C(=O)O`, the cell number change was -1.14%. For the same compound, the AC50 under setting [2] was 6.51 µM [rising, single point].
`CC(=O)Nc1ccc(N2CCCCC2)cc1`: the cell number change turned out to be 90.5%. Further, the AC50 under setting [1] is 29.1 µM [rising, single point]. In addition, under setting [2], the AC50 was 23.1 µM [rising, partial curve].
`C[C@@H](CN1C2=NC[C@H](C)N2C[C@H]1Cc1ccc(O)cc1)NC(=O)CCC1CCCCC1`: the cell number change is -3.01%. The AC50 under setting [1] was 0.13 µM [falling, full curve, poor fit].
For `CCn1c(SCC(=O)NCc2ccc3c(c2)OCO3)nc2c(c1=O)SCC2`, the cell number change came out at 2.64%.
`OCCC1CN(CCCn2cccn2)CCN1Cc1ccccc1` (stereo not given): the cell number change stood at 11%. Moreover, the AC50 under setting [2] is 29.1 µM [rising, single point].
On to `COc1ccc(S(=O)(=O)c2c(C)c(NS(=O)(=O)c3ccccc3)cc(C)c2O)cc1`, for which the cell number change turned out to be 5.31%. The AC50 under setting [2] was 0.00461 µM [rising, full curve, poor fit].
`CCOC(=O)c1c(C)n(C)c2ccc(OC)c(NS(=O)(=O)c3ccc(Cl)s3)c12`: the cell number change is -13.4%.
For `O=C(CCC(=O)N1CCOc2ccc(Cl)cc21)NCc1ccccc1`, the cell number change is -14.1%. In addition, the AC50 under setting [2] is 20.6 µM [falling, single point].
As for `CCC(=O)NCCc1nc2cc(NC(=O)c3ccco3)ccc2n1C`, the cell number change was -7.89%. The AC50 under setting [2] was 6.31 µM [rising, single point].
`Cc1onc(-c2ccccc2)c1C(=O)OCCOc1cccc(Cl)c1`: the cell number change worked out at 28.7%.
Regarding `O=[N+]([O-])c1ccc(/C=N/NC(=S)Nc2ccc(Cl)cc2Cl)s1`, the cell number change was -22.9%. The AC50 under setting [2] is 29.1 µM [falling, single point].
Turning to `Nc1ccc(N2CCCCC2)c2nonc12`, the cell number change was -22.2%. Further, the AC50 under setting [2] was 6.51 µM [falling, partial curve].
Take `COCCCNCCOCCOc1ccc(Cl)cc1C(C)(C)C`: the cell number change was 1.94%. The AC50 under setting [2] is 4.61 µM [falling, full curve].
Regarding `CCn1c(SCc2nc3sc(C(=O)O)c(C)c3c(=O)[nH]2)nnc1-c1ccc(Cl)cc1`, the cell number change is -32.1%.
Regarding `Cc1ccc2nc(NC(=O)CSCC(=O)Nc3cc(C)on3)sc2c1`, the cell number change was -44.5%. Moreover, the AC50 under setting [1] is 8.2 µM [falling, single point]. Under setting [2], the concentration at half-maximal activity (AC50) is 0.146 µM [falling, full curve, poor fit].
